These results are taken from PubChem BioAssay AID200 (DTP/NCI, 2004).

For the test, the system named is B6C3F1 mice, B16 melanoma ip, median survival T/C. As to the kind of experiment: NCI In Vivo Anticancer Drug Screen. Data for tumor model B16 Melanoma (intraperitoneal) in B6C3F1 mice. Conditions: T/C endpoint: median survival time, schedule: Q01DX009 (ip), higher T/C = longer survival. In short, it runs like this: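 Tumor-bearing mice received test compound; a separate group got vehicle only. Survival was then compared, with results reported as treated over control.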

Where [1] appears, read: dose: 6.25 mg/kg/injection, vehicle: Klucel (hydroxypropylcellulose) (HPC).
The mark [2] stands for this setting: dose: 12.5 mg/kg/injection, vehicle: Klucel (hydroxypropylcellulose) (HPC).
[3] abbreviates: dose: 25.0 mg/kg/injection, vehicle: Klucel (hydroxypropylcellulose) (HPC).
Where [4] appears, read: dose: 100.0 mg/kg/injection, vehicle: Klucel (hydroxypropylcellulose) (HPC).
[5] abbreviates: dose: 400.0 mg/kg/injection, vehicle: saline with Tween-80.
Where [6] appears, read: dose: 400.0 mg/kg/injection, vehicle: saline.
Where [7] appears, read: dose: 25.0 mg/kg/injection, vehicle: saline.
Setting [8] is: dose: 200.0 mg/kg/injection, vehicle: Klucel (hydroxypropylcellulose) (HPC).
Where [9] appears, read: dose: 400.0 mg/kg/injection, vehicle: Klucel (hydroxypropylcellulose) (HPC).
[10] abbreviates: dose: 200.0 mg/kg/injection, vehicle: saline with Tween-80.
[11] abbreviates: dose: 50.0 mg/kg/injection, vehicle: Klucel (hydroxypropylcellulose) (HPC).
Where [12] appears, read: dose: 200.0 mg/kg/injection, vehicle: saline.
Setting [13] is: dose: 100.0 mg/kg/injection, vehicle: saline.

The list does not hold the whole screen: it is rich in T/C values a quarter to a half above the control, in often repeated tests (any T/C) and in doses without a T/C. Further doses and runs are listed elsewhere. T/C: endpoint of the treated group in % of that of the vehicle group. Some doses have a count of surviving animals in place of a T/C: the source holds a T/C of zero for them, seemingly a mark for toxic or unscored doses. Some survivor counts are full or nearly so, which does not show that the dose was tolerated: the source hardly ever lists a survival T/C far under the control, and the zero likely stands for such cases as well. Counts of survivors are from the toxicity check (mostly the fifth day) where no day follows; animals may have died later. Schedules are NCI's codes, read here as Q, the interval in days (D) or hours (H), X, the number of doses. Some doses were run more than once; their values stand side by side, smallest first. For survival time, this PubChem deposit counts one and a half times the control or more as active, and values a quarter to a half above the control carry no call in these data; other NCI protocols may use other cut-offs.

Regarding `CNC(=O)OCc1c(COC(=O)NC)c(C)n(-c2ccc(OC)cc2)c1C`, the T/C reads like this: under setting [1], 133 % of control; under setting [2], 136 % of control; under setting [3], 140 % of control. The survivor count under setting [4] is on record as 10 of 10.

Consider `CCCCCC#CC1OC12CCCCC2` (stereo not given), for which the survivor count is, setting by setting: under setting [5], 8 of 10; under setting [6], 8 of 10.

Take `COc1cccc(Sc2ccc([N+](=O)[O-])c3no[n+]([O-])c23)c1`: the survivor count is, setting by setting: (dose: 120.0 mg/kg/injection, vehicle: saline with Tween-80) 8 of 10; (dose: 240.0 mg/kg/injection, vehicle: saline with Tween-80) 0 of 10; (dose: 480.0 mg/kg/injection, vehicle: saline with Tween-80) 0 of 10.

Take `CCOC(=O)N1CCN(CCCCCCOc2ccc(C3CCCCC3)cc2)CC1`: the survivor count reads like this: (dose: 6.25 mg/kg/injection, vehicle: saline) 10 of 10; under setting [7], 10 of 10.

Consider `COC1C(CO)OC(n2cnc3c(=S)nc(N)[nH]c32)C1O` (stereo not given), for which the survivor count reads like this: under setting [8], 10 of 10; under setting [9], 10 of 10.

As to `O=C(Nc1cc(Cl)ccc1C(=O)O)c1cccc(C[n+]2ccccc2)c1`, the survivor count reads like this: under setting [10], 10 of 10; under setting [5], 10 of 10.

`CCN(C)N=Nc1ccc(C(N)=O)cc1`: the T/C under setting [4] is 142 % of control. Further, the survivor count by setting is: under setting [4], 10 of 10; under setting [8], 10 of 10.

On to `Nc1nc(-c2ccc(S(=O)(=O)O)cc2)cc(=O)[nH]1`, for which, under “dose: 13.25 mg/kg/injection, vehicle: saline”, the T/C is 130 % of control.

Regarding `COC(=O)Nc1cn2cc(C(=O)c3cccs3)ccc2n1`, the T/C was 142 % of control (dose: 6.0 mg/kg/injection, vehicle: other); 127 % of control (dose: 12.0 mg/kg/injection, vehicle: other); 138 and 142 % of control under setting [2]; 127 % of control (dose: 25.0 mg/kg/injection, vehicle: other); 139 % of control under setting [11]; 133 % of control under setting [4]. Moreover, the T/C (dose: 100.0 mg/kg/injection, vehicle: other) is 143 % of control. Further, the survivor count reads like this: under setting [4], 9 of 10 and 10 of 10; under setting [8], 5 of 10 and 10 of 10; (dose: 200.0 mg/kg/injection, vehicle: other) 10 of 10.

Consider `COc1c(C=O)c2c(c(OC)c1OC)-c1ccc(OC)c(=O)cc1[C@@H](NC(C)=O)CC2`, for which the T/C is 132 % of control (dose: 3.12 mg/kg/injection, vehicle: Klucel (hydroxypropylcellulose) (HPC)) and 126 % of control under setting [1]. Also, the survivor count was 8 of 10 under setting [1]; 6 of 10 under setting [2]; 3 of 10 and 5 of 10 under setting [3].

For `CC(C)(C)OC(=O)NC(CSCc1ccccc1)C(=O)ON1C(=O)CCC1=O` (stereo not given), the survivor count under setting [9] is recorded as 9 of 10.

`CSCCC(NC(=O)c1ccccc1)C(=O)O` (stereo not given): the survivor count is reported as 10 of 10 (dose: 100.0 mg/kg/injection, vehicle: saline with Tween-80); 9 of 10 under setting [10]; 10 of 10 under setting [12]; 9 of 10 under setting [5]; 10 of 10 under setting [6].

In the case of `CC(=O)OCC1OC(n2cc(CBr)nn2)C(OC(C)=O)C(OC(C)=O)C1OC(C)=O` (stereo not given), the T/C under setting [13] is 134 % of control. Further, the survivor count under setting [12] was 7 of 10.

With `O=C1c2c(O)cccc2-c2nn(CCNCCO)c3ccc(NCCNCCO)c1c23`, the survivor count reads like this: (dose: 11.0 mg/kg/injection, vehicle: water) 10 of 10; (dose: 22.0 mg/kg/injection, vehicle: water) 10 of 10; (dose: 44.0 mg/kg/injection, vehicle: water) 7 of 8.

On to `[Cl][Sn]([c]1ccccc1)[c]1ccccc1`, for which the survivor count is 4 of 10 (dose: 12.5 mg/kg/injection, vehicle: saline); 1 of 10 under setting [7]; 0 of 10 and 4 of 10 (dose: 50.0 mg/kg/injection, vehicle: saline); 0 of 10 under setting [13].

As for `O=C(Nc1ccc([N+](=O)[O-])cc1)Nc1nncs1`, the T/C runs as follows: (dose: 100.0 mg/kg/injection, vehicle: distilled water + Tween-80, evaluated on day 45) 132 % of control; (dose: 100.0 mg/kg/injection, vehicle: distilled water + Tween-80, evaluated on day 50) 128 % of control; (dose: 200.0 mg/kg/injection, vehicle: distilled water + Tween-80) 133 % of control. The survivor count (dose: 400.0 mg/kg/injection, vehicle: distilled water + Tween-80) is 8 of 10 and 10 of 10.

Turning to `O=C1c2ccccc2CCC1(Br)Br`, for the setting “dose: 5.0 mg/kg/injection, vehicle: Klucel (hydroxypropylcellulose) (HPC)”, the survivor count is 7 of 7.

With `O=C/C(Cl)=C(/Cl)C(=O)O`, the survivor count (dose: 40.0 mg/kg/injection, vehicle: saline with Tween-80) is 9 of 10.

Consider `CC(C)(C)OC(=O)NC(CCCCNC(=O)C(F)(F)F)C(=O)O` (stereo not given), for which the survivor count by setting is: under setting [2], 10 of 10; under setting [11], 10 of 10; under setting [4], 10 of 10; under setting [8], 10 of 10.

Take `CCO/C=C1\SC(=S)N(c2ccccc2C)C1=O`: the survivor count under setting [5] was 5 of 10 and 9 of 10.
